Measurements reported in PubChem BioAssay AID1053208 (Peter MacCallum Cancer Centre, 2014).
Purpose: 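Find knock-downs that sensitise mouse osteosarcoma cells to doxorubicin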 (primary screen). Cell system: mouse osteosarcoma cells, early-passage culture from an engineered mouse model of fibroblastic bone tumour. Reagent: siRNA pool against mouse genes, 40 nM. Duration: about 120 h (48 h before drug, then 72 h with drug). Challenge: doxorubicin 100 nM for 72 h, roughly 30-40% inhibitory dose. Detection: 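Luminescent ATP signal taken as viability with or without 100 nM doxorubicin for 72 h; mean of two wells set against non-targeting siRNA and turned into robust z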. Reading the numbers: viability z-score with doxorubicin: higher = more viable cells under doxorubicin; viability z-score without drug: higher = more viable cells with knock-down alone. Hit rule: 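a pool counts as active when its viability z-score with doxorubicin is -2 or below and its z-score without drug lies between -2 and 2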.
In all, the deposit lists about 17,000 reagents; below is a part drawn at random. Over the whole deposit, 788 (4.7%) were called active. 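Calls rest on z-score classes alone; an extra cut-off of viability at most 70% of control was not applied to them.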 Further read-outs or replicates are left out here. Reagent sequences are not shown.

Knock-down of Bid resulted in: combined z-score class high cell count with doxorubicin only; viability z-score with doxorubicin 3.15; viability z-score without drug 0.84; inactive.
Knock-down of Cldn13 came out at: combined z-score class no change with or without drug; viability z-score with doxorubicin -1.8; viability z-score without drug -0.17; inactive.
After knock-down of Psmd8, the screen gave combined z-score class no change with or without drug; viability z-score with doxorubicin -1.69; viability z-score without drug -0.17; inactive.
Knock-down of Tgm4 resulted in: combined z-score class high cell count without drug only; viability z-score with doxorubicin 0.9; viability z-score without drug 2.02; inactive.
Against Nhlh2, the entry reads combined z-score class high cell count without drug only; viability z-score with doxorubicin 1.01; viability z-score without drug 2.53; inactive.
With knock-down of Mrpl1, the record shows combined z-score class no change with or without drug; viability z-score with doxorubicin 0.56; viability z-score without drug 0.67; inactive.
Or6c33 showed combined z-score class no change with or without drug; viability z-score with doxorubicin 1.12; viability z-score without drug -0.34; inactive.
Against Lad1 the deposit lists combined z-score class no change with or without drug; viability z-score with doxorubicin -0.67; viability z-score without drug -0.17; inactive.
Against Sos1, the values are combined z-score class no change with or without drug; viability z-score with doxorubicin 0; viability z-score without drug 1.52; inactive.
With knock-down of Cdt1 the results were combined z-score class no change with or without drug; viability z-score with doxorubicin 1.57; viability z-score without drug -0.84; inactive.
Depletion of Or4c114 came out at: combined z-score class no change with or without drug; viability z-score with doxorubicin 0.9; viability z-score without drug -0.51; inactive.
With knock-down of Spaca7, the record shows combined z-score class no change with or without drug; viability z-score with doxorubicin 0.45; viability z-score without drug 0.51; inactive.
